Measured values as given in patent publication US20240108662A1, “ENGINEERED CELLS FUNCTIONALIZED WITH IMMUNE CHECKPOINT MOLECULES AND USES THEREOF” (The University of North Carolina at Chapel Hill, priority 2020, published 2024).

Assay: Proteomic analysis of native murine pancreata and decelled pancreatic ECM (Table 1)
Set-up: species or system mouse
Details: for Pancreatic ECM: Mean of log2(intensities): abundance of the listed protein in decelled pancreatic ECM; for Native pancreas tissue: Mean of log2(intensities): abundance of the listed protein in native murine pancreas tissue

B1: Q925H3 (protein, UniProt Q925H3 1-78, looked up)
chain: MCGYYGNYYGGRGYGCCGCGGLGYGYGGLGCGYGSYYGCGYRGLGCGYGYGCGYGSRSLYGCGYGCGSGYGSGFGYYY
modifications: full-length
Pancreatic ECM: Mean of log2(intensities): 25.99 a.u. | Native pancreas tissue: Mean of log2(intensities): 22.33 a.u.

B2: Q9QZU5 (protein, UniProt Q9QZU5 1-150, looked up)
chain: MSYTCNSGNYSSQSFGGFLRQPVSTYNSFYPTSNVVYSPKNFQLGSSFYNGQQETFSEPLEGHLPCVGSASFHTSCFRPKQYFSSPCQGGFTGSFGYGNTGFGAFGFGSSGIRSQGCGSNFYRPGYFSSKSIQSSYYQPGYSSGFCGSNF
modifications: full-length
Pancreatic ECM: Mean of log2(intensities): 25.18 a.u. | Native pancreas tissue: Mean of log2(intensities): 21.55 a.u.

B3: B2RY56 (protein, UniProt B2RY56 1-838, looked up)
chain: MSFPPHLNRPPMGIPALPPGIPPPQFPGFPPPVPPGTPMIPVPMSIMAPAPTVLVPTVSMVGKHLGARKDHPGLKLKENDENCGPTTTVFVGNISEKASDMLIRQLLAKCGLVLSWKRVQGASGKLQAFGFCEYKEPESTLRALRLLHDLQIGEKKLLVKVDAKTKAQLDEWKAKKKANGNARPETVTNDDEEALDEETKRRDQMIKGAIEVLIREYSSELNAPSQESDSHPRKKKKEKKEDIFRRFPVAPLIPYPLITKEDINAIEMEEDKRDLISREISKFRDTHKKLEEEKGKKEKERQEIEKERRERERERERERERREREREREREREREKEKERERERERDRDRDRTKERDRDRERDRDRDRERSSDRNKDRSRSREKSRDREREREREREREREREREREREREREREREREREKDKKRDREEDEEDAYERRKLERKLREKEAAYQERLKNWEIRERKKTREYEKEAEREEERRREMAKEAKRLKEFLEDYDDDRDDPKYYRGSALQKRLRDREKEMEADERDRKREKEELEEIRQRLLAEGHPDPDAELQRMEQEAERRRQPQIKQEPESEEEEEEKQEKEEKREEPVEEEEEPEQKPCLKPTLRPISSAPSVSSASGNATPNTPGDESPCGIIIPHENSPDQQQPEEHRPKIGLSLKLGASNSPGQPNSVKRKKLPVDSVFNKFEDEDSDDVPRKRKLVPLDYGEDDKNATKGTVNTEEKRKHIKSLIEKIPTAKPELFAYPLDWSIVDSILMERRIRPWINKKIIEYIGEEEATLVDFVCSKVMAHSSPQSILDDVAMVLDEEAEVFIVKMWRLLIYETEAKKIGLVK
modifications: full-length
Pancreatic ECM: Mean of log2(intensities): 24.86 a.u. | Native pancreas tissue: Mean of log2(intensities): 21.21 a.u.

B4: Q9WVD5 (protein, UniProt Q9WVD5 1-301, looked up)
chain: MKSNPAIQAAIDLTAGAAGGTACVLTGQPFDTMKVKMQTFPDLYRGLTDCCLKTYSQVGFRGFYKGTSPALIANIAENSVLFMCYGFCQQVVRKVVGLDQQAKLSDLQNAAAGSFASAFAALVLCPTELVKCRLQTMYEMETSGKIAASQNTVWSVVKEIFRKDGPLGFYHGLSSTLLREVPGYFFFFGGYELSRSFFASGRSKDELGPVPLMLSGGFGGICLWLAVYPVDCIKSRIQVLSMTGKQTGLVRTFLSIVKNEGITALYSGLKPTMIRAFPANGALFLAYEYSRKLMMNQLEAW
modifications: full-length
Pancreatic ECM: Mean of log2(intensities): 25.53 a.u. | Native pancreas tissue: Mean of log2(intensities): 21.86 a.u.

B5: Q8BS95 (protein, UniProt Q8BS95 1-455, looked up)
chain: MSFLIDSSIMITSQILFFGFGWLFFMRQLFKDYEVRQYVVQVIFSVTFAFSCTMFELIIFEILGVLNSSSRYFHWKLNLCVILLILVFMVPFYIGYFIVSNIQLLHKQRLLFSCLLWLTFMYFFWKLGDPFPILSPKHGILSIEQLISRVGVIGVTLMALLSGFGAVNCPYTYMSYFLRNVTDTDILALERRLLQTMDMIISKKKRMAVARRTMFQRGDVQNKPSGLWGMLKSVTASAPGSENLTLIQQEVDALEELSRQLFLETADLYATKERIEYSKTFKGKYFNFLGYFFSIYCVWKIFMATINIVLDRVGKTDPVTRGIEITVNYLGIQFDVKFWSQHISFILVGIIIVTSIRGLLITLTKFFYAISSSKSSNVIVLLLAQIMGMYFVSSVLLIRMSMPPEYRTIITEVLGELQFNFYHRWFDVIFLVSALSSILFLYLAHKQAPEKHMAP
modifications: full-length
Pancreatic ECM: Mean of log2(intensities): 24.82 a.u. | Native pancreas tissue: Mean of log2(intensities): 21.18 a.u.

B6: Q9EQ06 (protein, UniProt Q9EQ06 1-298, looked up)
chain: MKYLLDLILLLPLLIVFSIESLVKLFIPKKKKSVAGEIVLITGAGHGIGRLTAYEFAKLNTKLVLWDINKNGIEETAAKCRKLGAQAHPFVVDCSQREEIYSAAKKVKEEVGDVSILVNNAGVVYTADLFATQDPQIEKTFEVNVLAHFWTTKAFLPVMMKNNHGHIVTVASAAGHTVVPFLLAYCSSKFAAVGFHRALTDELAALGRTGVRTSCLCPNFINTGFIKNPSTNLGPTLEPEEVVEHLMHGILTEKQMIFVPSSIALLTVLERIVPERFLQVLKHRINVKFDAVVGYKDK
modifications: full-length
Pancreatic ECM: Mean of log2(intensities): 24.95 a.u. | Native pancreas tissue: Mean of log2(intensities): 21.32 a.u.

B7: Q8BXQ2 (protein, UniProt Q8BXQ2 1-582, looked up)
chain: MAAAMPLGLPLRLLVLLLVGRGCCGCAEGPRDSLREELVITPLPSGDVAATFQFRTRWDSDLQREGVSHYRLFPKALGQLISKYSLRELHLSFTQGFWRTRYWGPPFLQAPSGAELWVWFQDTVTDVDKSWRELSNVLSGIFCASLNFIDATNTVTPTASFKPLGLANDTDDYFLRYAVLPREVVCTENLTPWKKLLPCSSKAGLSVLLKADRLFHTSYHSQAVHIRPICRNAHCTSISWELRQTLSVVFDAFITGQGKKDWSLFRMFSRTLTEACPLASQSLVYVDITGYSQDNETLEVSPPPTSTYQDVILGTRKTYAVYDLFDTAMINNSRNLNIQLKWKRPPDNEALPVPFLHAQRYVSGYGLQKGELSTLLYNSHPYRAFPVLLLDVVPWYLRLYVHTLTITSKGKENKPSYIHYQPAQDRQQPHLLEMLIQLPANSVTKVSIQFERALLKWTEYTPDPNHGFYVSPSVLSALVPSVVAAKPVDWEGSPLFNTLFPVSDGSSYFVRLYTEPLLVNLPTPDFSMPYNVICLTCTVVAVCYGSFYNLLTRTFHIEEPKSGGLAKRLANLIRRARGVPPL
modifications: full-length
Pancreatic ECM: Mean of log2(intensities): 24.67 a.u. | Native pancreas tissue: Mean of log2(intensities): 21.02 a.u.

B8: Q8K2A8 (protein, UniProt Q8K2A8 1-438, looked up)
chain: MAAGLRKRGQPASVGQPAGIWKQWLQRAWQERYLLLREPRYTLLVASCLCIAEVGITFWVIHRVAYTEIDWKAYMAQVEGFINGTYDYTQLQGDTGPLVYPAGFLYIFTGLFYATDRGTDIPMAQNIFAVLYLVTLVLVFLIYHQTSKVPPFVFFFMCCASYRVHSIFVLRLFNDPVAMALLFLSINLFLAQCWSWGCCCFSLAVSVKMNVLLFAPGLLFLLLTQFGFRGALPKLAICAALQVVLGLPFLLENPIGYLSRSFDLGRQFLFQWTVNWRFLPETIFLHRAFHLALLAAHLSLLLLFALCRWHRTGESILALLKDPSKRKVPPQALTPNQIVSILFTSNFIGICFSRSLHYQFYVWYFHTLPYLLWAMPARWLTHLLRLLVLGLIELSWNTYPSTSFSSAALHLCHAVVLLQLWLSPESFPKSIQPSRKTH
modifications: full-length
Pancreatic ECM: Mean of log2(intensities): 25.59 a.u. | Native pancreas tissue: Mean of log2(intensities): 22.01 a.u.

B9: Q91YR7 (protein, UniProt Q91YR7 1-941, looked up)
chain: MNKKKKPFLGMPAPLGYVPGLGRGATGFTTRSDIGPARDANDPVDDRHAPPGKRTVGDQMKKNQAADDDDEDLNDTNYDEFNGYAGSLFSSGPYEKDDEEADAIYAALDKRMDERRKERREQREKEEIEKYRMERPKIQQQFSDLKRKLAEVTEEEWLSIPEVGDARNKRQRNPRYEKLTPVPDSFFAKHLQTGENHTSVDPRQTQFGGLNTPYPGGLNTPYPGGMTPGLMTPGTGELDMRKIGQARNTLMDMRLSQVSDSVSGQTVVDPKGYLTDLNSMIPTHGGDINDIKKARLLLKSVRETNPHHPPAWIASARLEEVTGKLQVARNLIMKGTEMCPKSEDVWLEAARLQPGDTAKAVVAQAVRHLPQSVRIYIRAAELETDIRAKKRVLRKALEHVPNSVRLWKAAVELEEPEDARIMLSRAVECCPTSVELWLALARLETYENARKVLNKARENIPTDRHIWITAAKLEEANGNTQMVEKIIDRAITSLRANGVEINREQWIQDAEECDRAGSVATCQAVMRAVIGIGIEEEDRKHTWMEDADSCVAHNALECARAIYAYALQVFPSKKSVWLRAAYFEKNHGTRESLEALLQRAVAHCPKAEVLWLMGAKSKWLAGDVPAARSILALAFQANPNSEEIWLAAVKLESENNEYERARRLLAKARSSAPTARVFMKSVKLEWVLGNISAAQELCEEALRHYEDFPKLWMMKGQIEEQGELMEKAREAYNQGLKKCPHSTPLWLLLSRLEEKIGQLTRARAILEKSRLKNPKNPGLWLESVRLEYRAGLKNIANTLMAKALQECPNSGILWSEAVFLEARPQRKTKSVDALKKCEHDPHVLLAVAKLFWSERKITKAREWFHRTVKIDSDLGDAWAFFYKFELQHGTEEQQEEVRKRCENAEPRHGELWCAVSKDITNWQRKIGEILVLVAARIKNTF
modifications: full-length
Pancreatic ECM: Mean of log2(intensities): 25.17 a.u. | Native pancreas tissue: Mean of log2(intensities): 21.61 a.u.

B10: Q80WV3 (protein, UniProt Q80WV3 1-530, looked up)
chain: MSRSSPRALPPGALPRPLPAAPAAVQRALLPPWPRRAGRRWPASPLGMKVFRRKALVLCAGYALLLVLTMLNLLDYKWHKEPLQQCNPDGPLGAAVGAAGAGWGRPGSPPAAPPRAHSRMDPRTPYRPPAAGVGAVPAAAAGSAGAAASLGNATRGTRGGGDKRQLVYVFTTWRSGSSFFGELFNQNPEVFFLYEPVWHVWQKLYPGDAVSLQGAARDMLSALYRCDLSVFQLYSPAGSGGRNLTTLGIFGAATNKVVCSSPLCPAYRKEVVGLVDDRVCKKCPPQRLARFEEECRKYRTLVIKGVRVFDVAVLAPLLKDPALDLKVIHLVRDPRAVASSRIRSRHGLIRESLQVVRSRDPRAHRMPFLEAAGHKLGAKKEGMGGPADYHALGAMEVICNSMAKTLQTALQPPDWLQGHYLVVRYEDLVGDPVKTLRRVYDFVGLLVSPEMEQFALNMTSGSGSSSKPFVVSARNATQAANAWRTALTFQQIKQVEEFCYQPMAVLGYERVNSPEEVKDLSKTLLRKPRL
modifications: full-length
Pancreatic ECM: Mean of log2(intensities): 25.47 a.u. | Native pancreas tissue: Mean of log2(intensities): 21.76 a.u.

B11: O35682 (protein, UniProt O35682 1-320, looked up)
chain: MPVTVTRTTITTTTSSSTTVGSARALTQPLGLLRLLQLISTCVAFSLVASVGAWTGPMGNWAMFTWCFCFAVTLIILIVELGGLQAHFPLSWRNFPITFACYAALFCLSSSIIYPTTYVQFLAHGRTRDHAIAATTFSCVACLAYATEVAWTRARPGEITGYMATVPGLLKVFETFVACIIFAFISEPLLYNQKPALEWCVAVYAICFILAGVTILLNLGDCTNVLPIPFPTFLSGLALLSVLFYATAIVLWPLYQFDQRYQGQPRRSMDPSCTRSISYIQPNTVCFWDRRLAVSILTGINLLAYVSDLVYSTRLVFVKV
modifications: full-length
Pancreatic ECM: Mean of log2(intensities): 25.42 a.u. | Native pancreas tissue: Mean of log2(intensities): 21.74 a.u.
